# Source: publication PMC7819943, “Rice protein-binding microarrays: a tool to detect cis-acting elements near promoter regions in rice”
# Sequences of proteins named here, by UniProt entry; tags and fusion partners are left off.
# UniProt Q0JBA9, entry or part of it: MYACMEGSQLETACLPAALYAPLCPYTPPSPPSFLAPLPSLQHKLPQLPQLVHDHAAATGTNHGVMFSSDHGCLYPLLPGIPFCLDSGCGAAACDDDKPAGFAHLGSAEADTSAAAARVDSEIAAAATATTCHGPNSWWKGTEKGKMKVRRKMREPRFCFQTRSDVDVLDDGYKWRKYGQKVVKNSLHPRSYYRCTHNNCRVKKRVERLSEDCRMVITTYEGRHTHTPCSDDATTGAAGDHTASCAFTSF
# The other results are listed elsewhere or left out.
# Target: OsWRKY34 (Oryza sativa, UniProt Q0JBA9 1-250)
# Assay: protein-binding microarray (RPBM); PBS, 2% BSA, 51.3 ng/ul salmon testes DNA, 50 uM zinc acetate, 200 nM TF, 25 C, 1 h; high values mean tight binding
# Conditions: protein: recombinant; tags: N-terminal polyhistidine and DsRed monomer fusion (pET32a); label: CyDye5-dUTP incorporated in the synthesized complementary strand; 3' TTTTT single-stranded linker to array surface; dsDNA, one strand shown
# How it was run: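 Ni–NTA purification followed expression in E. coli BL21-CodonPlus of transcription factors fused N-terminally to a polyhistidine tag and DsRed. At 200 nM in PBS with 2% BSA, salmon testes DNA and 50 µM zinc acetate, the protein was incubated for 1 h at 25 °C with a custom Agilent array that had been primer-extended with Cy5-dUTP and blocked with 2% BSA. After washing, the array was read on an Axon 4000B scanner. The binding signal is per-feature fluorescence intensity in arbitrary units.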
row,Sequence,binding signal
1,GTCATTTCTCTATTTTTTCCCGCGTTTTGCTATCATCTGTCGGAGTCACCTAGTGCAG,16200 fluorescence intensity (a.u.)
2,CTTGCCATCTTTCACCATACTTCTAAATACCCAAAATTCTCGGAGTCACCTAGTGCAG,8290 fluorescence intensity (a.u.)
3,AATCCCTCATCCGAGTAATCTCCTATCCCTTGGTAACAATCGGAGTCACCTAGTGCAG,8410 fluorescence intensity (a.u.)
4,GTGCATGGATCATCTTCCTTTTCCCCTCTGCGCTCGGCGCCGGAGTCACCTAGTGCAG,8340 fluorescence intensity (a.u.)
5,TAGTGGTCAAAGTTAAAAATGTTTGACTTGTCACTGTGCTCGGAGTCACCTAGTGCAG,9180 fluorescence intensity (a.u.)
6,CACCCACCACCTCCCTTGTCGTCTCCGCGCTTCGCTCCGGCGGAGTCACCTAGTGCAG,8890 fluorescence intensity (a.u.)
7,AATTATTTTATAAATGTGTTATCCTTAAGGGGTCTTTTTTCGGAGTCACCTAGTGCAG,10200 fluorescence intensity (a.u.)
8,GCTGAGGCCGGCTTCCACCGCCGGTGAGGTGATCACCCGCCGGAGTCACCTAGTGCAG,8060 fluorescence intensity (a.u.)
9,GATCTAAACATGGCCTTAATTTATCGTCATAATTAAATGACGGAGTCACCTAGTGCAG,8420 fluorescence intensity (a.u.)
10,ATTTCTAACTTTTTTTCCCATTGTTTTGTTTGTCTTATTTCGGAGTCACCTAGTGCAG,8920 fluorescence intensity (a.u.)
11,TACGATCCCTACCGTCCAGTGTCCACCACGATTTCACCCTCGGAGTCACCTAGTGCAG,10000 fluorescence intensity (a.u.)
12,CTTCCTAGTAACTTCTCTCTTTGTGCGTTAGATCATTATTCGGAGTCACCTAGTGCAG,8240 fluorescence intensity (a.u.)
13,TTGAGAGCTGGAGGCGCAGGCTGGGATCGGCGGAGCCATGCGGAGTCACCTAGTGCAG,63200 fluorescence intensity (a.u.)
14,CACTAATTACTTTCGCATCCTACGTGCATTTACTTAATCCCGGAGTCACCTAGTGCAG,8760 fluorescence intensity (a.u.)
15,GGTCCTCAAATCATTTGTTGCTTGGGGCTGTTTCTGTTTGCGGAGTCACCTAGTGCAG,11300 fluorescence intensity (a.u.)
16,GCGCCTGTTTTCATCTCATCCTCCTCTCTTGTGGTTTCTTCGGAGTCACCTAGTGCAG,9450 fluorescence intensity (a.u.)
17,TTCTTCGAATCCCTAGCATCACATCTTCTGCTACTCTGCTCGGAGTCACCTAGTGCAG,9420 fluorescence intensity (a.u.)
18,GCCTTTCTATAGTACTCTATTATACTTGCTCTTAGTAATACGGAGTCACCTAGTGCAG,8870 fluorescence intensity (a.u.)
19,CGGGATGATGGTTGTGTTTTTACCGCTGTTCTTTTTGTCGCGGAGTCACCTAGTGCAG,11200 fluorescence intensity (a.u.)
20,TACTAGTTTGGTTCTCACTACTCACCACTCAGCATAATCTCGGAGTCACCTAGTGCAG,9330 fluorescence intensity (a.u.)
21,CTCTCCTCGCTTCCCGGGTTTGATACGTGGTACGTGACGCCGGAGTCACCTAGTGCAG,8680 fluorescence intensity (a.u.)

row,Sequence,binding signal
1,GGGGCCGGGCGGGGCGGCCAGGTTGGTTTGCTTGGTTCCACGGAGTCACCTAGTGCAG,13500 fluorescence intensity (a.u.)
2,TCTGTTTGGTCAAACTTCTCTTCCTCTTACCAGCATATCACGGAGTCACCTAGTGCAG,10800 fluorescence intensity (a.u.)
3,GAATACTTTGCATATACCACGTACGCCGTGCTGCCAACTACGGAGTCACCTAGTGCAG,8210 fluorescence intensity (a.u.)
4,CTTATTTGTCTTCGCTGATGTTCACCCGTCAATTCCACATCGGAGTCACCTAGTGCAG,15700 fluorescence intensity (a.u.)
5,AATTTTCCTATATTTAGAATCCTTTTTGTCCTGTTATAAACGGAGTCACCTAGTGCAG,8090 fluorescence intensity (a.u.)
6,TATCGCTGCTTGCCCTTGTCCTCATGTACACAATCAGCTTCGGAGTCACCTAGTGCAG,10300 fluorescence intensity (a.u.)
7,GCTAATCTCATAATCTTGTACTTTATGCTTGTTCTTGATTCGGAGTCACCTAGTGCAG,8080 fluorescence intensity (a.u.)
8,CTATATTCGAGGGAGTCCTTGTGGACTTTTTCCTTCTTTCCGGAGTCACCTAGTGCAG,9390 fluorescence intensity (a.u.)
9,GTTTTGCCATGGGTGTTCTCTTTCTTGGTAGTTCTATTTCCGGAGTCACCTAGTGCAG,9260 fluorescence intensity (a.u.)
10,ATATATATATATATATATATATATATATATATATGAGGGTCGGAGTCACCTAGTGCAG,10000 fluorescence intensity (a.u.)
11,CTATTGATTGTTGGCGAGCATGTTCTTATCCAGTTGACTTCGGAGTCACCTAGTGCAG,10700 fluorescence intensity (a.u.)
12,CCTCTTCATCCTACTATTACCACATGGCACGAGTCTACCTCGGAGTCACCTAGTGCAG,8470 fluorescence intensity (a.u.)
13,CTTGCAACTGTTCTATACCCTTGAGATGGTGACTGCCTTTCGGAGTCACCTAGTGCAG,8020 fluorescence intensity (a.u.)
14,GCTGGCTACTACTACTACTTGCACTCCACGCCCTCATCCCCGGAGTCACCTAGTGCAG,9270 fluorescence intensity (a.u.)
15,AATTCTACCGTTCTTGCTTTAATTCATGCCATGTCCGATGCGGAGTCACCTAGTGCAG,9640 fluorescence intensity (a.u.)
16,TATCAACGTTTACCGTTTCTTCTTTGCCATGTGCTTAATTCGGAGTCACCTAGTGCAG,9720 fluorescence intensity (a.u.)
17,AGTCGCCGTTCCGCTGTATCGACTAACTTTTATAATAAGTCGGAGTCACCTAGTGCAG,9000 fluorescence intensity (a.u.)
18,CCCCTGCTGCACGTCCCAAATTATTATCACCTACTCCTACCGGAGTCACCTAGTGCAG,8930 fluorescence intensity (a.u.)
19,GATGGCATTTGGAGCCATCGACAACTTGCGCCTTAATCACCGGAGTCACCTAGTGCAG,8610 fluorescence intensity (a.u.)
20,GTTACTGTGCTGTGGCCGATCGATTTTATCATTTATCATTCGGAGTCACCTAGTGCAG,9190 fluorescence intensity (a.u.)
21,CTCACTGCACACCTTCTTCCAATCACAACACCCCACCATGCGGAGTCACCTAGTGCAG,8130 fluorescence intensity (a.u.)

# Part of the list above, as tab-separated lines:
row	Sequence	binding signal
3	GAATACTTTGCATATACCACGTACGCCGTGCTGCCAACTACGGAGTCACCTAGTGCAG	8210 fluorescence intensity (a.u.)
4	CTTATTTGTCTTCGCTGATGTTCACCCGTCAATTCCACATCGGAGTCACCTAGTGCAG	15700 fluorescence intensity (a.u.)
5	AATTTTCCTATATTTAGAATCCTTTTTGTCCTGTTATAAACGGAGTCACCTAGTGCAG	8090 fluorescence intensity (a.u.)

# The list goes on.

row,Sequence,binding signal
1,GGCGAGGCGAATGTGATGGGCTAAGTTTTGTCGTTGGCAACGGAGTCACCTAGTGCAG,8210 fluorescence intensity (a.u.)
2,CTCCTCTGTAGTGTTACCATTGACAAATATTTATCGGTTTCGGAGTCACCTAGTGCAG,8890 fluorescence intensity (a.u.)
3,GCCTCACTTGTTATATATTTGAACAAACATTACTTACATACGGAGTCACCTAGTGCAG,9980 fluorescence intensity (a.u.)
4,CATAACCCATTCCTATTTAATTTTATCTACTTTTCTTAATCGGAGTCACCTAGTGCAG,9360 fluorescence intensity (a.u.)
5,TCCACTCATAGACGCATCACATAGCCATCTCTCTCTCTCTCGGAGTCACCTAGTGCAG,9260 fluorescence intensity (a.u.)
6,ACCGCTTCGCCGAGCTCCTGGCTGCCGACACCAACACCGTCGGAGTCACCTAGTGCAG,9180 fluorescence intensity (a.u.)
7,GCTGCCCGCTCTAATCTGTTTTGTCTCCATCTGCTATGATCGGAGTCACCTAGTGCAG,8950 fluorescence intensity (a.u.)
8,ACCCGCTTCTCGTCTCCTCGTCTCCTCGTTCGTCTCTCGCCGGAGTCACCTAGTGCAG,18000 fluorescence intensity (a.u.)
9,GGCGTGATAGTATTATTTTGCCACGTCAAATGTTCAGATTCGGAGTCACCTAGTGCAG,8380 fluorescence intensity (a.u.)
10,GAGCTTCATGCGCCACTTCTGCTTCCGCTCCACCGCGCAGCGGAGTCACCTAGTGCAG,8310 fluorescence intensity (a.u.)
11,ATCCCGAACGAAAATCGGAGCGTTACATTAGCCACCGCCGCGGAGTCACCTAGTGCAG,8780 fluorescence intensity (a.u.)
12,CTATATTCAGTGTGCATATGTGTATTCCGTGTAATTTATTCGGAGTCACCTAGTGCAG,9070 fluorescence intensity (a.u.)
13,CCTCTCCCATCATTTCTCACACACACATGTAAAACTCCCCCGGAGTCACCTAGTGCAG,9800 fluorescence intensity (a.u.)
14,GACGACGGGTGTCTCGGTTGGGGTGAGGGTGGGCCCCACTCGGAGTCACCTAGTGCAG,10200 fluorescence intensity (a.u.)
15,CCGGCCACTACTCCTCCCGCACGCATCGTCTTCCAGCCTGCGGAGTCACCTAGTGCAG,8720 fluorescence intensity (a.u.)
16,ATTTACATTTGATTGTACGCTTGTTTACCGGTTACTGTCACGGAGTCACCTAGTGCAG,8400 fluorescence intensity (a.u.)
17,CCTATTACCATCTCAATCACCCATTCTCTCTCCAGCCACCCGGAGTCACCTAGTGCAG,8840 fluorescence intensity (a.u.)
18,CTTCTAACTTTTTCTATCATATTAATATCTCATACACACACGGAGTCACCTAGTGCAG,8250 fluorescence intensity (a.u.)
19,GATGATGTGACTAAAAAGTTGTGTGTATATGACAGGTTGACGGAGTCACCTAGTGCAG,8160 fluorescence intensity (a.u.)
20,CGACGGGAGAGGAGGAGCCGGTGGGCGGGGTGGGGCCCACCGGAGTCACCTAGTGCAG,11000 fluorescence intensity (a.u.)
21,CTAGAGTTTATTTTATTTTTTTTTCATCTATTTAGTCCAACGGAGTCACCTAGTGCAG,8960 fluorescence intensity (a.u.)

row,Sequence,binding signal
1,ACCGTCCACGTGTCCCATGCTGCCGGCCCTTCCACACCCGCGGAGTCACCTAGTGCAG,9410 fluorescence intensity (a.u.)
2,CGTTGCATCTTTTCTCAGATTACCTATGTTAATGTACAATCGGAGTCACCTAGTGCAG,8570 fluorescence intensity (a.u.)
3,CTGGCACTTGGCACTTGGTTAATTCCACTCACTCATCACTCGGAGTCACCTAGTGCAG,8260 fluorescence intensity (a.u.)
4,GCGCCTCTTCTTCAACACGCGGGAGTGGGCCGATCAGTTCCGGAGTCACCTAGTGCAG,8600 fluorescence intensity (a.u.)
5,TGCCTGAGTTTGGATTAGAGGGGTGCCTATATGGTGAAAACGGAGTCACCTAGTGCAG,9460 fluorescence intensity (a.u.)
6,TTGTGGGCTCATGAAAATTCCTTGTGTTTTTTGGCAATTACGGAGTCACCTAGTGCAG,8400 fluorescence intensity (a.u.)
7,TCTCTATGGTACATCCCCGTAATGTTCTCTTACATATGGGCGGAGTCACCTAGTGCAG,8130 fluorescence intensity (a.u.)
8,TGTTTGCTTGCTTGATTGGTCCCTTGTCTTGTTATTAGTCCGGAGTCACCTAGTGCAG,8460 fluorescence intensity (a.u.)
9,TTTCCTGGGCCTATAAATTCGGCATCACGCCCAACGCATCCGGAGTCACCTAGTGCAG,8140 fluorescence intensity (a.u.)
10,GTCGCTTGTAACTTGTAAGGCGTGTGACTGTTGCCGTGATCGGAGTCACCTAGTGCAG,9070 fluorescence intensity (a.u.)
11,GGTTTGATATGAGCCTGTCAACATGTCCCTGCTAAGCTTACGGAGTCACCTAGTGCAG,9080 fluorescence intensity (a.u.)
12,CTCTCACCCTGCCCCGTCCGTAATCCCGTCCCGTTCCGTTCGGAGTCACCTAGTGCAG,8290 fluorescence intensity (a.u.)
13,TTCTAATATACTGAAGTTACTGTTTCATTTGTTTTTAGACCGGAGTCACCTAGTGCAG,8330 fluorescence intensity (a.u.)
14,GGTCTCCGGCGTCCACACCATCTACTACGAGCAGTCCGGGCGGAGTCACCTAGTGCAG,10500 fluorescence intensity (a.u.)
15,GCTCCAGCCTCCGCTCATCCCAAGCCTTCCACCACAACCCCGGAGTCACCTAGTGCAG,8340 fluorescence intensity (a.u.)
16,TAACTCAATTCATCCACCCATGCTCAATCTTGTACGGGCGCGGAGTCACCTAGTGCAG,12100 fluorescence intensity (a.u.)
17,TACTCCATCCCACTTCGTTGTCATCTCTGATGAATCTTTTCGGAGTCACCTAGTGCAG,8950 fluorescence intensity (a.u.)
18,AAAATTTTTCACCCTGTCATATCATATGTTTCGATATATGCGGAGTCACCTAGTGCAG,12200 fluorescence intensity (a.u.)
19,CACCGTTCTCTCCTTGGCAAACAACTTCTTCTTTGGCGAGCGGAGTCACCTAGTGCAG,8780 fluorescence intensity (a.u.)
20,GATCTGTGCCTATCAGCGCTGTTCGTCGTCGTCCTCTCCACGGAGTCACCTAGTGCAG,9820 fluorescence intensity (a.u.)
21,AATCATTTACTTCCCGTGTATTTTTGTCAATAATGGTATCCGGAGTCACCTAGTGCAG,13800 fluorescence intensity (a.u.)

# Fetched one by one from the entries so far:
row,Sequence,binding signal
9,TTTCCTGGGCCTATAAATTCGGCATCACGCCCAACGCATCCGGAGTCACCTAGTGCAG,8140 fluorescence intensity (a.u.)
19,GATGATGTGACTAAAAAGTTGTGTGTATATGACAGGTTGACGGAGTCACCTAGTGCAG,8160 fluorescence intensity (a.u.)
4,CATAACCCATTCCTATTTAATTTTATCTACTTTTCTTAATCGGAGTCACCTAGTGCAG,9360 fluorescence intensity (a.u.)
